# Measured values as given in PubChem BioAssay AID1508600 (Functional Genomics Laboratory (NCATS/FGL), 2020).
# Among all 53,000 sequences or so, about 3,700 (7%) were called active.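 How the source made its calls: active means gene knockdowns whose robust z-score for IL-1 alpha signal is at least 2 or at most -2, so actives lie on both sides; inactive means the rest.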 This is one part of the list.
# Experiment: Components of the Cytosolic LPS Sensing Pathway: Gene Identification via Genome-wide siRNA Screen;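 further: robust z of the log signal after scaling to non-targeting control siRNA wells of the plate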
# Conditions: RAW264.7 macrophages, IL-1a HTRF, actives lie on both sides, screened at 100 nM (by protocol), cells primed 5 h with Pam3CSK4 first
# Procedure, shortened: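 RAW264.7; siRNA 100 nM final, RNAiMAX, 48h 37 degrees C; Pam3CSK4 5 h; LipidA + TransIT-TKO 24 h; IL-1a HTRF; CellTiter-Glo viability; robust z vs negative-control median.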
row,Sequence,z-score
1,GCCUUCUGAUAAUAUUAUGTT against Vps13b,inactive: 0.0712
2,GGGCAUUGUUGUUUCUAUUTT against Lhfp,inactive: -0.0841
3,GGAUGCUCAACACUACGCUTT against Avp,inactive: 0.341
4,GGCAAACAAAACAAACUGATT against Tram1l1,inactive: -0.967
5,GGAGCUCCUCUGAAUGCUCTT against Arhgef15,inactive: -1.66
6,GCUAUGACUCCAACAUGCGTT against Jaml,inactive: 0.0115
7,GGAGUGUUUAAAUAUAGCCTT against Mtmr9,inactive: 0.529
8,CCGAAAUGGACAUAUCAUUTT against Trim3,inactive: 0.102
9,AACAUUGUAUAUCUCUCAUTT against Saa1,inactive: 1.14
10,GGAACAAACCUUCAUUUAGTT against Osbp2,inactive: 0.28
11,GCCCUCAAUAACUAUGUACTT against Il2,inactive: -0.389
12,GUGUCUCUGUACUUAUUAUTT against Olfr483,inactive: 0.69
13,GGAUGAAAAUCAAUUCUCCTT against Nusap1,inactive: 0.693
14,GGACCUAAGAAACUGCUUATT against Ccr7,inactive: 0.716
15,GGGAUUGUAUGAGUGCACATT against Coa4,inactive: 0.657
16,GGCAGAGCCUGGAUUUAUCTT against 2610524H06Rik,inactive: -0.582
17,GGCUGAGCACAAUAAUCCCTT against Ndufs7,inactive: -0.657
18,GGUCAACUCCUUUAUGAGCTT against Apoa4,inactive: -0.238
19,GGAACCACAUGGACACACUTT against Tmem251,inactive: -0.146
20,GGUGGUUUAAGAAAUCAAATT against Dolpp1,inactive: 0.34
21,CCGAGCAAAAUCUCAAAUUTT against Mdh1,inactive: 1.89
22,CGUGAAAUAAACAGUCUGATT against Ranbp2,inactive: -0.166
23,GGGAAGAAGAAGAAUUUUGTT against Ubap2,inactive: -0.389
24,GGUAUGUCCUCUGGUCAAUTT against Bpifa1,inactive: 0.282
25,GCGGUAAUAUCUACGAAGATT against Ina,inactive: 0.886
26,GGAGUUCCAGAAGCUUCUATT against Vwa3b,inactive: -1.72
27,GCCCUCUUAUCUGAAUAAUTT against Stk17b,active: 2.19

# Single values from above.
# Value of GGAUGAAAAUCAAUUCUCCTT against Nusap1 under z-score: inactive: 0.693
# Value of GCCCUCUUAUCUGAAUAAUTT against Stk17b under z-score: active: 2.19

# Carrying on.

row,Sequence,z-score
1,GGAAGAUCUACAUCGUGGGTT against Klhl26,inactive: 0.341
2,GCGACUAUUUUGAAUACCATT against Tlk1,inactive: -0.449
3,GGCUUAAAAUGUUAGUGAATT against Tspan11,inactive: 1.5
4,GCUAGCAUAACUUCAGCUATT against Trim45,inactive: 0.502
5,GGUGUCAUCAAGUUGAAAATT against Mcrs1,inactive: -1.12
6,GGGCCAACUCAAAACAAAATT against Wdr37,inactive: -0.74
7,CGCGUCUCUACAAAAACAUTT against Impa2,inactive: 0.408
8,GGAGAUCACAGAAAAAACCTT against Colec12,inactive: 0.28
9,GCUCCGAAAGACUAGAUACTT against Spag8,inactive: -0.339
10,GCCCUAUCAACACUUGGGATT against Prrxl1,inactive: -0.224
11,GCACACCAACAAUGCUUUCTT against Tmem86a,inactive: -0.313
12,GGAGAUGGAUUUUUCUACUTT against F830045P16Rik,inactive: 0.291
13,GGAAGAGUGAUGGUUUUAATT against Tollip,inactive: 1.2
14,CGCACAUCCUGAAUAUACATT against Drd2,inactive: -0.483
15,CGCAAUGGAAGUCUAUCUUTT against Zdhhc5,inactive: 0.699
16,GGCUGUGUUGAGUUUUCACTT against Abcg3,inactive: 1.23
17,GCAGCAUCGCUAUGUCCUGTT against Ccl26,inactive: 0.182
18,GGGCUUUGUUUCCAAGUUGTT against Muc15,inactive: -0.285
19,GGUAAGUUUGGGAACAUUGTT against Septin12,inactive: 0.528
20,GGACAUCAAUUCAACAGUUTT against Lifr,inactive: -0.361
21,CCAUUCCCGCAUCCAUGUGTT against Zfp672,active: -2.23
22,GGAGUCAAGUCCACAUACATT against Usp47,inactive: -0.027
23,GAUGCUGCCAACAUGACACTT against Clps,inactive: 0.451
24,GGAAGAAAAAGUCCUGUCCTT against Aoc1,inactive: -0.984
25,GCUCUGUGUGGUCUCCUAATT against Nrm,inactive: -1.9
26,GUCUCAAGUGGACUGUGAGTT against Klk1b4,active: -2.83
